Data on 80 molecules can be found in paper PMC12040169 (PLOS Biology, 2025).

Each structure is given as a SMILES string. Some of the results follow.

The test concerns T1, CTL2-GFP (C. trachomatis L2/434/Bu, GFP-expressing).
T1 construct: L2/434/Bu, GFP-expressing
The arrangement: species or system HeLa; Intracellular C. trachomatis growth in HeLa cells, bulk GFP fluorescence relative to DMSO. To be noted: bulk GFP, single well; 28.5 h, 10 µM; inhibitor.
In the case of `O[C@@H]1CN(Cc2ccc(F)c(F)c2)CC[C@H]1NC1CC1` [CBK283319], the “% of control remaining” value is given as 119.618%.

For `C=CCOc1ccccc1OCCCN1CCN(C)CC1` [CBK269714C], the “% of control remaining” value worked out at 119.567%.

Consider `O=C(Nc1ccc(F)cc1)c1sccc1NS(=O)(=O)Cc1ccccc1` [CBK004574], for which the “% of control remaining” value is recorded as 88.0316%.

As to `Cc1ccc(S(=O)(=O)NC(C)C(=O)Nc2cc(C(F)(F)F)ccc2Cl)cc1` (centres unmarked) [CBK266546], the “% of control remaining” value is reported as 130.389%.

Turning to `Cn1nccc1CN1CCCC(COc2ccc(F)cc2)C1` (centres unmarked) [CBK281899], the “% of control remaining” value is recorded as 108.521%.

With `COCCN1CC(CNC(=O)c2cccc(F)c2O)CC1=O` (centres unmarked) [CBK304386], the “% of control remaining” value is listed as 106.465%.

Turning to `O=[N+]([O-])c1ccccc1S(=O)(=O)Nc1cc(C(F)(F)F)ccc1Cl` [CBK015721], the “% of control remaining” value stood at 104.698%.

In the case of `S=C(NCCCN1CCOCC1)Nc1ccccc1Cl` [CBK264599], the “% of control remaining” value worked out at 100%.

Take `O=C(O)c1ccc(S(=O)(=O)N2CCOCC2)cc1` [CBK287201]: the “% of control remaining” value is listed as 142.538%.

Regarding `Cn1cc(CN2CCN(CC3(c4ccccc4)CC3)CC2)cn1` [CBK282794], the “% of control remaining” value was found to be 101.718%.

Turning to `O=C(Nc1cccc2cccnc12)c1ccc([N+](=O)[O-])o1` [CBK268007], the “% of control remaining” value was 78.5085%.

For `CC(=O)Nc1ccc(F)c(NC(=O)NCC2CCOC2)c1` (centres unmarked) [CBK304388], the “% of control remaining” value was determined as 115.847%.

Consider `CC(=O)Nc1ccc(-c2ccc(C(=O)NCc3ccc(OC(F)(F)F)cc3)cn2)cc1` [CBK158830], for which the “% of control remaining” value was found to be 117.073%.

For the molecule `CC(=O)c1ccc(-c2ccc(C(=O)N(C)CCN(C)C)c(N(C)C)n2)s1` [CBK106071], the “% of control remaining” value is 127.972%.

For the molecule `Cc1nc(S(=O)(=O)N2CCC(C(=O)N3CCCCC3)CC2)cn1C` [CBK305963], the “% of control remaining” value amounted to 93.6163%.

`CC(C)c1ccc(/C=C/C(=O)NCc2ccccc2)cc1` [CBK149635]: the “% of control remaining” value turned out to be 105.236%.

Regarding `OCCCN1CCC(Oc2cncc(OCCN3CCOCC3)n2)C1` (centres unmarked) [CBK084494], the “% of control remaining” value is listed as 105.969%.

In the case of `CS(=O)(=O)N1C[C@@H]2CCCCN(Cc3cccc(F)c3F)[C@@H]2C1` [CBK285513], the “% of control remaining” value was determined as 108.559%.

`COc1cc2c(cc1NC(=O)C/C(C)=N/NC(=O)c1ccccc1F)oc1ccccc12` [CBK262437]: the “% of control remaining” value was found to be 100%.

Take `CCOC(=O)C(Cc1ccccc1)NC(=O)c1ccc(C)nc1` (centres unmarked) [CBK305952]: the “% of control remaining” value is 142.692%.

In the case of `COc1ccc2c(c1)C1(CC(=O)N(CC(=O)N(C)C)C1=O)C(=O)N2CC(=O)c1ccccc1` (centres unmarked) [CBK075913], the “% of control remaining” value worked out at 102.662%.

With `O=C(c1ccccc1Br)N1CCCCC1` [CBK028504], the “% of control remaining” value was determined as 101.569%.

Consider `Cc1ccc(N(CC(=O)Nc2cccnc2)S(=O)(=O)c2ccc(F)cc2)cc1` [CBK263332], for which the “% of control remaining” value stood at 102.587%.

With `CC(=O)c1ccc(-c2cnc(Nc3ccc(N4CCOCC4)cc3)c3nccn23)s1` [CBK091231], the “% of control remaining” value was determined as 191.323%.

In the case of `O=C(NNC(=O)c1cc2ccccc2cc1O)Nc1cccc([N+](=O)[O-])c1` [CBK266882], the “% of control remaining” value is listed as 128.234%.

On to `NS(=O)(=O)c1cc(C(=O)O)ccc1Cl` [CBK113676], for which the “% of control remaining” value was determined as 181.985%.

Take `Cc1nc(N2CCCCC2)ncc1C(=O)NCc1nonc1C` [CBK307243]: the “% of control remaining” value worked out at 102.884%.

For `Cn1nc(C2CCCN(C(=O)c3cccc(F)c3)C2)c2cccnc21` (centres unmarked) [CBK282155], the “% of control remaining” value was 138.872%.

`CC1C(=O)N(c2ccc(Cl)c(Cl)c2)C(=N)N1c1nc(N(C)C)nc(N(C)C)n1` (centres unmarked) [CBK263182]: the “% of control remaining” value is listed as 134.804%.

As for `CC(=O)N1CCCC(c2[nH]c3cccnc3c2CN(C)C)C1` (centres unmarked) [CBK283469], the “% of control remaining” value is recorded as 120.823%.

As to `O=C(Nc1cccc(-c2nnn[nH]2)c1)c1ccc(C2CCCCC2)cc1` [CBK296712], the “% of control remaining” value came to 122.882%.

In the case of `O=C(c1ccc2ccccc2c1)N1CCC2(CC1)CN(Cc1ccccc1)CCO2` [CBK161118A], the “% of control remaining” value was found to be 119.537%.

With `CCn1c(SCC(=O)Nc2c(Cl)cc(Cl)cc2Cl)nnc1-c1ccccc1F` [CBK268609], the “% of control remaining” value amounted to 108.893%.

As for `O=C(Nc1ccc(F)cc1)c1[nH]c2ccccc2c1NS(=O)(=O)c1cc(Cl)sc1Cl` [CBK050094], the “% of control remaining” value was 44.4169%.

For the molecule `Cc1cccc(N2CCN(CCCOc3ccc(F)c(F)c3)CC2)n1` [CBK025158C], the “% of control remaining” value came out at 125.175%.

With `CCCn1nnc(NC(=O)C(C)Oc2ccc(Cl)cc2Cl)n1` (centres unmarked) [CBK266772], the “% of control remaining” value came to 126.918%.

On to `Cn1c(=O)oc2cc(S(=O)(=O)N3CCN(C4CCCCC4)CC3)ccc21` [CBK268865], for which the “% of control remaining” value is reported as 129.195%.

Consider `COc1ccc(CN2CCCN(S(=O)(=O)c3ccc(C(=O)c4ccccc4)cc3)CC2)cc1F` [CBK062855], for which the “% of control remaining” value is reported as 136.093%.

Take `COc1cc(C(=O)NCc2ccc(-c3csnn3)cc2)cc(OC)c1OC` [CBK149308]: the “% of control remaining” value is recorded as 127.093%.

With `Brc1csc(CNc2ccc3cn[nH]c3c2)c1` [CBK021216], the “% of control remaining” value is recorded as 122.721%.

For the molecule `Cc1onc(-c2ccccc2Cl)c1C(=O)Nc1ccc(CC(=O)O)cc1` [CBK269623], the “% of control remaining” value is on record as 159.758%.

Take `CCCCCn1c(O)nnc1SCc1csc(CS(=O)(=O)c2ccc(Cl)cc2)n1` [CBK007176]: the “% of control remaining” value came out at 131.77%.

Turning to `O=C(c1ccccc1)c1ccc2n1CCC2C(=O)Nc1ccccc1F` (centres unmarked) [CBK300530], the “% of control remaining” value is on record as 160.261%.

Turning to `COc1ccc(C(=O)Nc2nc3c(C)c(C)ccc3s2)cc1` [CBK291210], the “% of control remaining” value was found to be 98.9497%.

Consider `CC(=O)N1CCOc2ccccc21` [CBK050388], for which the “% of control remaining” value worked out at 119.382%.

Take `Cn1cncc1CN1C[C@@H]2CCCN2C[C@@H]1Cc1ccccc1` [CBK283027]: the “% of control remaining” value is on record as 138.427%.

Turning to `Cc1ccc2nc(NC(=O)C(C)(C)C)nc(O)c2c1` [CBK021975], the “% of control remaining” value was 157.43%.

For the molecule `NC(=O)c1c(NC(=S)NC(NC(=O)c2ccco2)C(Cl)(Cl)Cl)sc2c1CCCC2` (centres unmarked) [CBK261055], the “% of control remaining” value amounted to 89.4268%.

Take `COc1ccc(C2CCN(Cc3ccncc3)CC2)cc1` [CBK283563]: the “% of control remaining” value came to 82.7154%.

For `C[C@@H](Nc1nccnc1-c1ccc(C(=O)N2CCOCC2)cc1)c1ccccc1` [CBK037058], the “% of control remaining” value amounted to 89.8053%.

For the molecule `OC12CCCCC1CN(Cc1nc3ccccc3[nH]1)CC2` (centres unmarked) [CBK282995], the “% of control remaining” value was found to be 111.137%.

Regarding `COc1ccc([C@@]23CC[C@@H](NC(=O)Nc4cccc5nsnc45)C[C@@H]2N(C)CC3)cc1OC` [CBK038874T], the “% of control remaining” value was found to be 96.0201%.

Turning to `Cc1ccc(C(=O)Nc2cccc(CCc3ccncc3)c2)c(=O)n1C` [CBK285556], the “% of control remaining” value was 89.5393%.

On to `Nc1ncc(-c2cncnc2)nc1-c1ccc(CCC(=O)O)cc1` [CBK064120], for which the “% of control remaining” value was determined as 201.902%.

Turning to `CCn1c2cc(C)oc2c2cnn(CC(=O)N3CCCC3)c(=O)c21` [CBK284215], the “% of control remaining” value was 121.794%.

For `Cc1ccc(C2CCCN2C(=O)c2cccn(CC(=O)Nc3ccc(F)cc3)c2=O)cc1C` (centres unmarked) [CBK286528], the “% of control remaining” value is on record as 133.035%.

As for `COc1ccc(C2Oc3cccnc3N(CCCN(C)C)C2=O)cc1` (centres unmarked) [CBK007694], the “% of control remaining” value was found to be 145.208%.

For `O=C(O)COc1ccc(Br)cc1/C=N/Nc1ccccn1` [CBK262369], the “% of control remaining” value is on record as 100.978%.

Take `NNC(=O)C(NC(=O)c1ccccc1)c1n[nH]c(=O)c2ccccc12` (centres unmarked) [CBK261144]: the “% of control remaining” value was 100.903%.

As for `CCOc1ccc(-c2ccnc(N3CCCC(C)(O)C3)n2)cc1C(=O)O` (centres unmarked) [CBK307652], the “% of control remaining” value is 116.594%.

In the case of `CC(NC(=O)C1C2CCC(CC2)C1C(=O)O)c1ccncc1` (centres unmarked) [CBK287061], the “% of control remaining” value worked out at 124.387%.

Take `Clc1ccc(Cl)c(-c2ccc(CNCCCN3CCOCC3)o2)c1` [CBK278190C]: the “% of control remaining” value was found to be 141.552%.

For the molecule `CN1CCN(C(C(=O)O)c2c[nH]c3cc(OCc4ccccc4)ccc23)CC1` (centres unmarked) [CBK286654], the “% of control remaining” value is on record as 146.251%.

As for `Nc1nc(-c2ccc(Cl)cc2)c(CC(=O)O)s1` [CBK287188], the “% of control remaining” value amounted to 136.605%.

Consider `CC(C)[C@@H](CO)Nc1nc(-c2cccc(Br)c2)cnc1N` [CBK063758], for which the “% of control remaining” value is on record as 88.5512%.

`O=C(Cc1csc(-c2ccc(Cl)cc2)n1)Nc1cccnc1` [CBK107300]: the “% of control remaining” value was 102.071%.

Take `COc1nc2ccccc2nc1CCc1nc(-c2ccccc2)no1` [CBK269840]: the “% of control remaining” value was 154.711%.

Take `CC(C)Nc1ccc(C(=O)N2CCC(N3CCOCC3)CC2)cn1` [CBK304353]: the “% of control remaining” value was found to be 139.418%.

Take `O=C(c1ccc2ccccc2c1)C12CN3CN(CN(C3)C1)C2` [CBK009031]: the “% of control remaining” value stood at 125.722%.

For the molecule `O=C1CN(C(=O)NCCc2c[nH]c3ccccc23)CCN1` [CBK155866], the “% of control remaining” value stood at 99.7963%.

Turning to `Cc1cc(C)cc(NS(=O)(=O)c2ccc(NC(=O)C(C)Oc3ccc(Cl)cc3Cl)cc2)c1` (centres unmarked) [CBK264894], the “% of control remaining” value is reported as 64.3813%.

As for `Cn1cc(C(=O)NC(Cc2ccsc2)c2cccnc2)cn1` (centres unmarked) [CBK285118], the “% of control remaining” value was 103.57%.

For `CN1CCN(CCCOc2ccc(OCc3ccccc3)cc2)CC1` [CBK265077], the “% of control remaining” value is recorded as 120.73%.

Take `Cc1onc(-c2ccccc2)c1CNC(=O)CC1CCCCC1` [CBK144078]: the “% of control remaining” value is 118.323%.

For the molecule `NS(=O)(=O)c1ccc(CNS(=O)(=O)Cc2ccccc2)cc1` [CBK228048], the “% of control remaining” value came out at 115.915%.

On to `O=C(NCc1cc(Br)ccc1F)C1CC(=O)N(Cc2ccccn2)C1` (centres unmarked) [CBK305242], for which the “% of control remaining” value came out at 108.244%.

As to `CN1CCC(N(C)C(=O)Nc2ccc3[nH]ccc3c2)C1` (centres unmarked) [CBK156006], the “% of control remaining” value was determined as 82.1802%.

`O=C1COc2ccccc2CCCC[C@@H]2CN(C(=O)CCN3CCCC3=O)CC[C@H]2N1` [CBK292044]: the “% of control remaining” value came out at 138.482%.

Turning to `O=C1COc2ccccc2C/C=C/CC2(CCNCC2)C(=O)NCCN1` [CBK291996], the “% of control remaining” value is listed as 121.329%.

As to `COC(=O)c1ccc(NC(=O)Cn2nnc(-c3ccc(CN4CCOCC4)cc3)n2)cc1` [CBK134589], the “% of control remaining” value is on record as 115.709%.
